Paper PMC12102759
These are yes or no findings as the source states them, for the method shown. Binding can be weak; no strength is given.

Biological target: GST-tagged PP2A B56 regulatory subunit (1–486) (human)
Experiment: peptide phage display selection with NGS; only the target purified

Q: With SGYLPTLNEDEEWKCDQD [AXIN1 235–252 peptide on M13 phage] as the binder, how does the binding read?
A: Its binding is “binds”.

Q: With KKPLLSPIPELPEVPEMT [CDCA2 586–603 peptide on M13 phage] as the binder, how does the binding read?
A: Its binding is “binds”.
